In patent publication US20080107707A1, “POLYMERIZABLE ANTIMICROBIAL COMPOSITION” (REGENTS OF THE UNIVERSITY OF COLORADO, priority 2006, published 2008) one finds MIC data, which are given here for one compound.

For the experiment, the system named is S. epidermidis ATCC 12228. The experiment can be described thus: Minimum inhibitory concentration (MIC), broth dilution method. In kind it is cell-based. The conditions noted are these: Staphylococcus epidermidis, ATCC12228. How it is done: The minimum inhibitory concentration (MIC) and minimum bactericidal concentration (MBC) of the monomer were determined by the broth dilution method. Various amounts of VPA were added to 1 mL of brain heart infusion media (BHI) (Becton, Dickinson, and Co., Sparks, Md.) along with 1×10^5 cfu of S. epidermidis ATCC 12228 (MicroBiologics, Inc., St. Cloud, Minn.) using aseptic technique. Cultures were incubated for 24 hr. at 37° C. The MIC was taken to be the lowest VPA concentration at which no turbidity was observed.

In brackets after ≈: the same amount, converted by molar mass.

`CN[C@H](CC(C)C)C(=O)N[C@H]1C(=O)N[C@@H](CC(N)=O)C(=O)N[C@H]2C(=O)N[C@H]3C(=O)N[C@H](C(=O)N[C@H](C(=O)O)c4cc(O)cc(O)c4-c4cc3ccc4O)[C@H](O)c3ccc(c(Cl)c3)Oc3cc2cc(c3O[C@@H]2O[C@H](CO)[C@@H](O)[C@H](O)[C@H]2O[C@H]2C[C@](C)(N)[C@H](O)[C@H](C)O2)Oc2ccc(cc2Cl)[C@H]1O` [vancomycin, reference compound] showed an MIC of 1.12 ± 0.04 µM (≈ 1.62 µg/mL).
